Data as given in PubChem BioAssay AID493246 (Drosophila RNAi Screening Center, 2011)

Aim: 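Genome-wide search for dsRNAs that reduce cell number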 (primary screen)
Cells: Drosophila Kc and S2R+ cells
Reagent: long dsRNA against Drosophila genes
Measurement: 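Raw, unnormalised count of remaining cells in each well; per-plate z-scores of cell number underlie the calls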
Scale: Kc cell number and S2R+ cell number: higher = more cells remaining
Call rule: 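Counted as a hit if cell number falls by a z-score of at least 3 within its plate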
In all, the deposit lists about 21,000 reagents; this is an unselected part of those that have a named target and a result. Over the whole deposit, 429 (2%) are marked active. 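Values are raw and not normalised between plates; calls rest on per-plate z-scores that were not deposited.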 The record does not give: the amount of reagent, the time to read-out.

For CG32727 (GeneID 318176) [DRSC17519] the deposit lists Kc cell number, rep 1 = 1.21e6; Kc cell number, rep 2 = 1.44e6; S2R+ cell number, rep 1 = 1.03e6; S2R+ cell number, rep 2 = 1.06e6; inactive. For CG15336 (GeneID 31742) [DRSC18019], the entry reads Kc cell number, rep 1 = 1.54e6; Kc cell number, rep 2 = 1.54e6; S2R+ cell number, rep 1 = 1.09e6; S2R+ cell number, rep 2 = 1.18e6; inactive. Depletion of CG4593 (GeneID 31649) [DRSC18374] came out at: Kc cell number, rep 1 = 1.52e6; Kc cell number, rep 2 = 1.45e6; S2R+ cell number, rep 1 = 8.88e5; S2R+ cell number, rep 2 = 1.01e6; inactive. After knock-down of SA2 (GeneID 38167) [DRSC08385] the results were Kc cell number, rep 1 = 1.64e6; Kc cell number, rep 2 = 1.70e6; S2R+ cell number, rep 1 = 1.05e6; S2R+ cell number, rep 2 = 1.50e6; inactive. After knock-down of halo (GeneID 33334) [DRSC00705] the results were Kc cell number, rep 1 = 1.64e6; Kc cell number, rep 2 = 1.66e6; S2R+ cell number, rep 1 = 1.08e6; S2R+ cell number, rep 2 = 1.26e6; inactive. For CCHa2 (GeneID 41648) [DRSC14835] the deposit lists Kc cell number, rep 1 = 1.39e6; Kc cell number, rep 2 = 1.55e6; S2R+ cell number, rep 1 = 1.02e6; S2R+ cell number, rep 2 = 1.08e6; inactive.

For prod (GeneID 37187) [DRSC07667], the entry reads Kc cell number, rep 1 = 1.34e6; Kc cell number, rep 2 = 1.36e6; S2R+ cell number, rep 1 = 1.17e6; S2R+ cell number, rep 2 = 1.19e6; inactive. For mRpL19 (GeneID 41028) [DRSC16367], the entry reads Kc cell number, rep 1 = 1.28e6; Kc cell number, rep 2 = 1.30e6; S2R+ cell number, rep 1 = 9.25e5; S2R+ cell number, rep 2 = 1.11e6; inactive. Silencing of CG33773 (GeneID 3772436) [DRSC14032] came out at: Kc cell number, rep 1 = 1.24e6; Kc cell number, rep 2 = 1.67e6; S2R+ cell number, rep 1 = 1.09e6; S2R+ cell number, rep 2 = 1.13e6; inactive. CG13245 (GeneID 50456) [DRSC02243] scored Kc cell number, rep 1 = 1.38e6; Kc cell number, rep 2 = 1.36e6; S2R+ cell number, rep 1 = 1.34e6; S2R+ cell number, rep 2 = 1.33e6; inactive.

Targets above whose target name begins with C or c:
CG32727 (GeneID 318176) [DRSC17519] → Kc cell number, rep 1: 1.21e6; Kc cell number, rep 2: 1.44e6; S2R+ cell number, rep 1: 1.03e6; S2R+ cell number, rep 2: 1.06e6; outcome: inactive
CG15336 (GeneID 31742) [DRSC18019] → Kc cell number, rep 1: 1.54e6; Kc cell number, rep 2: 1.54e6; S2R+ cell number, rep 1: 1.09e6; S2R+ cell number, rep 2: 1.18e6; outcome: inactive
CG4593 (GeneID 31649) [DRSC18374] → Kc cell number, rep 1: 1.52e6; Kc cell number, rep 2: 1.45e6; S2R+ cell number, rep 1: 8.88e5; S2R+ cell number, rep 2: 1.01e6; outcome: inactive
CCHa2 (GeneID 41648) [DRSC14835] → Kc cell number, rep 1: 1.39e6; Kc cell number, rep 2: 1.55e6; S2R+ cell number, rep 1: 1.02e6; S2R+ cell number, rep 2: 1.08e6; outcome: inactive
CG33773 (GeneID 3772436) [DRSC14032] → Kc cell number, rep 1: 1.24e6; Kc cell number, rep 2: 1.67e6; S2R+ cell number, rep 1: 1.09e6; S2R+ cell number, rep 2: 1.13e6; outcome: inactive
CG13245 (GeneID 50456) [DRSC02243] → Kc cell number, rep 1: 1.38e6; Kc cell number, rep 2: 1.36e6; S2R+ cell number, rep 1: 1.34e6; S2R+ cell number, rep 2: 1.33e6; outcome: inactive

Next entries:
trk (GeneID 34376) [DRSC03625] gave Kc cell number, rep 1 = 1.64e6; Kc cell number, rep 2 = 1.73e6; S2R+ cell number, rep 1 = 1.17e6; S2R+ cell number, rep 2 = 1.30e6; inactive. CG33282 (GeneID 2768939) [DRSC00422] showed Kc cell number, rep 1 = 1.53e6; Kc cell number, rep 2 = 1.46e6; S2R+ cell number, rep 1 = 1.16e6; S2R+ cell number, rep 2 = 1.30e6; inactive. With knock-down of CG5188 (GeneID 34428) [DRSC02826] the results were Kc cell number, rep 1 = 1.52e6; Kc cell number, rep 2 = 1.61e6; S2R+ cell number, rep 1 = 1.25e6; S2R+ cell number, rep 2 = 1.38e6; inactive. Depletion of CG9030 (GeneID 32427) [DRSC20139] resulted in: Kc cell number, rep 1 = 1.52e6; Kc cell number, rep 2 = 1.52e6; S2R+ cell number, rep 1 = 1.16e6; S2R+ cell number, rep 2 = 1.24e6; inactive. Silencing of Cog7 (GeneID 43547) [DRSC16331] gave: Kc cell number, rep 1 = 1.67e6; Kc cell number, rep 2 = 1.72e6; S2R+ cell number, rep 1 = 1.03e6; S2R+ cell number, rep 2 = 1.16e6; inactive. Knock-down of Mesh1 (GeneID 43456) [DRSC14433] resulted in: Kc cell number, rep 1 = 1.42e6; Kc cell number, rep 2 = 1.47e6; S2R+ cell number, rep 1 = 9.87e5; S2R+ cell number, rep 2 = 1.14e6; inactive.

Knock-down of CG13858 (retired record) (GeneID 50058) [DRSC14708] came out at: Kc cell number, rep 1 = 1.30e6; Kc cell number, rep 2 = 1.21e6; S2R+ cell number, rep 1 = 1.12e6; S2R+ cell number, rep 2 = 1.27e6; inactive. Knock-down of CG13858 (retired record) (GeneID 50058) [DRSC14709] gave: Kc cell number, rep 1 = 1.25e6; Kc cell number, rep 2 = 1.18e6; S2R+ cell number, rep 1 = 1.06e6; S2R+ cell number, rep 2 = 1.22e6; inactive. Depletion of CG13858 (retired record) (GeneID 50058) [DRSC14710] gave: Kc cell number, rep 1 = 1.22e6; Kc cell number, rep 2 = 1.20e6; S2R+ cell number, rep 1 = 1.12e6; S2R+ cell number, rep 2 = 1.19e6; inactive. With knock-down of CG13858 (retired record) (GeneID 50058) [DRSC14711], the record shows Kc cell number, rep 1 = 1.23e6; Kc cell number, rep 2 = 1.20e6; S2R+ cell number, rep 1 = 1.09e6; S2R+ cell number, rep 2 = 1.17e6; inactive. For sinah (GeneID 39885) [DRSC09910], the entry reads Kc cell number, rep 1 = 1.48e6; Kc cell number, rep 2 = 1.80e6; S2R+ cell number, rep 1 = 1.39e6; S2R+ cell number, rep 2 = 1.52e6; inactive.
